Data on two molecules can be found in PMC8007109.

These are yes or no findings as the source states them, for the method shown.

Assay [1] addresses NUBP1-C235A/C238A mutant (human) (UniProt P53384). Briefly: SEC; analytical gel filtration, Superdex 200 10/300 Increase; monomeric apo proteins chemically reconstituted anaerobically with up to 12-fold excess of FeCl3 and Na2S, 5 mM DTT; both purified. On the technique in general: SEC sorts molecules by how far they enter the pores of the column.
Assay [2] has the same target. The assay can be described thus: SEC; analytical gel filtration, Superdex 200 10/300 Increase; proteins as purified (anaerobically, wtNUBP1 also aerobically); degassed 50 mM phosphate pH 7.0, 200 mM NaCl, 5 mM DTT; both purified.
Assay [3] shares this target. Briefly: SEC; analytical gel filtration, Superdex 200 10/300 Increase; purified proteins after overnight incubation at room temperature with 100 mM pyridine-2,6-dicarboxylic acid (PDC, metal chelator), 25 mM MOPS pH 7.0; both purified.
Assay [4] has as its target T1, NUBP1 construct restricted to residues 38-320 (human) (UniProt P53384).
T1 sequence: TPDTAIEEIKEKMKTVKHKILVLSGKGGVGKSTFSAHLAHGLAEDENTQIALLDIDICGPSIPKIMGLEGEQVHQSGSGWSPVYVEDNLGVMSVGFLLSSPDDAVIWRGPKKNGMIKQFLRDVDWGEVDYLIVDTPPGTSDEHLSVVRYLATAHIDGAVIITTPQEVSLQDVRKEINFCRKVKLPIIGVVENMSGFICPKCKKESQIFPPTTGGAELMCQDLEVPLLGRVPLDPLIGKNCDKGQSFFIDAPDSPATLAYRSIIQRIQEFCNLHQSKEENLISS
The assay can be described thus: pull-down; His6-tagged NUBP1 species and untagged [2Fe-2S]2-GLRX3_(2)-GS4 incubated 1 h at room temperature, anaerobic, 5 mM GSH, 40 mM sodium phosphate pH 8.0, 400 mM NaCl, 5 mM imidazole; loaded on His GraviTrap, eluted with 400 mM imidazole; fractions checked by SDS-PAGE; both purified.

B1: NUBP1-C235A/C238A mutant (protein, UniProt P53384 1-320)
chain: MEEVPHDCPGADSAQAGRGASCQGCPNQRLCASGAGATPDTAIEEIKEKMKTVKHKILVLSGKGGVGKSTFSAHLAHGLAEDENTQIALLDIDICGPSIPKIMGLEGEQVHQSGSGWSPVYVEDNLGVMSVGFLLSSPDDAVIWRGPKKNGMIKQFLRDVDWGEVDYLIVDTPPGTSDEHLSVVRYLATAHIDGAVIITTPQEVSLQDVRKEINFCRKVKLPIIGVVENMSGFIAPKAKKESQIFPPTTGGAELMCQDLEVPLLGRVPLDPLIGKNCDKGQSFFIDAPDSPATLAYRSIIQRIQEFCNLHQSKEENLISS
For B1, the binding result in assay [1], in assay [2] and in assay [3] was “no binding” each time.

B2: [2Fe–2S]2-GLRX3_(2)-GS4 (dimeric cluster-bridged human glutaredoxin-3) (protein, UniProt O76003 1-335)
chain: MAAGAAEAAVAAVEEVGSAGQFEELLRLKAKSLLVVHFWAPWAPQCAQMNEVMAELAKELPQVSFVKLEAEGVPEVSEKYEISSVPTFLFFKNSQKIDRLDGAHAPELTKKVQRHASSGSFLPSANEHLKEDLNLRLKKLTHAAPCMLFMKGTPQEPRCGFSKQMVEILHKHNIQFSSFDIFSDEEVRQGLKAYSSWPTYPQLYVSGELIGGLDIIKELEASEELDTICPKAPKLEERLKVLTNKASVMLFMKGNKQEAKCGFSKQILEILNSTGVEYETFDILEDEEVRQGLKAYSNWPTYPQLYVKGELVGGLDIVKELKENGELLPILRGEN
As for B2, in assay [4], the binding entry is “no binding”.
